Reference: PubChem BioAssay AID1224828 (NIAID, 2016)

Screen: 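Regulators linking TLR4 signalling to p65 nuclear translocation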 (primary screen)
Cells: mouse RAW264.7 G9 macrophage reporter cells (GFP-p65, Tnf promoter-mCherry)
Knock-down reagent: siRNA pool against mouse genes, 100 nM
Duration: 2 days siRNA transfection, then 40 min LPS before fixation
Treatment: LPS (Salmonella minnesota R595) at 10 ng/ml
Measurement: 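Imaged p65 nuclear translocation ratio, normalised to the plate median, converted to robust z-scores and averaged across two replicates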
Reading the numbers: p65 translocation robust z-score: higher = more nuclear NF-kappaB p65 after LPS than the plate median; nuclear/cytoplasmic p65 ratio: higher = more nuclear NF-kappaB p65
Rule for the call: 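Called active when z exceeds 3.3 or falls under -1.56 (median of Tlr4 controls), giving activity score of at least 50; no calls for control wells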
Calls: active = hit (p65 shift raised or lowered); inactive = no clear change
The deposit covers about 17,000 reagents; below is a random part of them. Of all reagents, 762 (4.5%) were called active. 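Active calls include both raised and lowered p65 entry, mostly lowered; wells with fewer than 50 cells lack a z-score.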 The raw values are shown without normalisation. The numbers tell different reagents against one gene apart.

For Ormdl1 (ORM1-like 1 (S. cerevisiae)), what was measured?
p65 translocation robust z-score: -0.24; nuclear/cytoplasmic p65 ratio, rep 1: 1.51; nuclear/cytoplasmic p65 ratio, rep 2: 1.79; low cell count flag: enough cells to score; call: inactive

Which result is listed for Or5c1 (olfactory receptor family 5 subfamily C member 1)?
p65 translocation robust z-score: -0.36; nuclear/cytoplasmic p65 ratio, rep 1: 1.66; nuclear/cytoplasmic p65 ratio, rep 2: 1.38; low cell count flag: enough cells to score; call: inactive

For Tm4sf1 (transmembrane 4 superfamily member 1), what was measured?
p65 translocation robust z-score: -0.48; nuclear/cytoplasmic p65 ratio, rep 1: 1.42; nuclear/cytoplasmic p65 ratio, rep 2: 1.48; low cell count flag: enough cells to score; call: inactive

With Celf2 (CUGBP, Elav-like family member 2) #1, how do the results read?
p65 translocation robust z-score: 1.65; nuclear/cytoplasmic p65 ratio, rep 1: 1.73; nuclear/cytoplasmic p65 ratio, rep 2: 1.57; low cell count flag: enough cells to score; call: inactive

For Celf2 (CUGBP, Elav-like family member 2) #2, what does the deposit list?
p65 translocation robust z-score: -0.25; nuclear/cytoplasmic p65 ratio, rep 1: 1.5; nuclear/cytoplasmic p65 ratio, rep 2: 1.54; low cell count flag: enough cells to score; call: inactive

Which result is listed for Fndc9 (fibronectin type III domain containing 9)?
p65 translocation robust z-score: 1.85; nuclear/cytoplasmic p65 ratio, rep 1: 1.72; nuclear/cytoplasmic p65 ratio, rep 2: 1.74; low cell count flag: enough cells to score; call: inactive

What is on record for Zscan22 (zinc finger and SCAN domain containing 22)?
p65 translocation robust z-score: 0.44; nuclear/cytoplasmic p65 ratio, rep 1: 1.7; nuclear/cytoplasmic p65 ratio, rep 2: 1.61; low cell count flag: enough cells to score; call: inactive

What is on record for Rnpepl1 (arginyl aminopeptidase (aminopeptidase B)-like 1)?
p65 translocation robust z-score: -0.96; nuclear/cytoplasmic p65 ratio, rep 1: 1.2; nuclear/cytoplasmic p65 ratio, rep 2: 1.19; low cell count flag: enough cells to score; call: inactive

What is on record for Slc38a7?
p65 translocation robust z-score: 0.22; nuclear/cytoplasmic p65 ratio, rep 1: 1.57; nuclear/cytoplasmic p65 ratio, rep 2: 1.93; low cell count flag: enough cells to score; call: inactive

With Gng3 (guanine nucleotide binding protein (G protein), gamma 3), how do the results read?
p65 translocation robust z-score: -0.24; nuclear/cytoplasmic p65 ratio, rep 1: 1.49; nuclear/cytoplasmic p65 ratio, rep 2: 1.53; low cell count flag: enough cells to score; call: inactive

For Fignl1 (fidgetin-like 1), how do the results read?
p65 translocation robust z-score: -0.44; nuclear/cytoplasmic p65 ratio, rep 1: 1.53; nuclear/cytoplasmic p65 ratio, rep 2: 1.4; low cell count flag: enough cells to score; call: inactive

With Rsph3a (radial spoke 3A homolog (Chlamydomonas)), how do the results read?
nuclear/cytoplasmic p65 ratio, rep 1: 1.1; nuclear/cytoplasmic p65 ratio, rep 2: 1.2; low cell count flag: fewer than 50 cells per well; well left out of scoring; call: inactive

What is on record for Ttll3 (tubulin tyrosine ligase-like family, member 3)?
p65 translocation robust z-score: 1.79; nuclear/cytoplasmic p65 ratio, rep 1: 1.5; nuclear/cytoplasmic p65 ratio, rep 2: 1.35; low cell count flag: enough cells to score; call: inactive

For Ahnak (AHNAK nucleoprotein), what does the deposit list?
nuclear/cytoplasmic p65 ratio, rep 1: 1.25; nuclear/cytoplasmic p65 ratio, rep 2: 1.3; low cell count flag: fewer than 50 cells per well; well left out of scoring; call: inactive

For Vmn1r51 (vomeronasal 1 receptor 51), what does the deposit list?
p65 translocation robust z-score: -0.28; nuclear/cytoplasmic p65 ratio, rep 1: 1.38; nuclear/cytoplasmic p65 ratio, rep 2: 1.17; low cell count flag: enough cells to score; call: inactive

Which result is listed for Klk1b24 (kallikrein 1-related peptidase b24)?
p65 translocation robust z-score: -0.57; nuclear/cytoplasmic p65 ratio, rep 1: 1.41; nuclear/cytoplasmic p65 ratio, rep 2: 1.41; low cell count flag: enough cells to score; call: inactive

For Vps50 (VPS50 EARP/GARPII complex subunit), what does the deposit list?
p65 translocation robust z-score: -0.39; nuclear/cytoplasmic p65 ratio, rep 1: 1.32; nuclear/cytoplasmic p65 ratio, rep 2: 1.39; low cell count flag: enough cells to score; call: inactive

For Zfp647 (zinc finger protein 647), what was measured?
nuclear/cytoplasmic p65 ratio, rep 1: 1.18; nuclear/cytoplasmic p65 ratio, rep 2: 1.49; low cell count flag: fewer than 50 cells per well; well left out of scoring; call: inactive

How did the screen score Tmem63b (transmembrane protein 63b)?
p65 translocation robust z-score: 0.94; nuclear/cytoplasmic p65 ratio, rep 1: 1.7; nuclear/cytoplasmic p65 ratio, rep 2: 2.03; low cell count flag: enough cells to score; call: inactive

What is on record for Wdr12 (WD repeat domain 12)?
p65 translocation robust z-score: 0.08; nuclear/cytoplasmic p65 ratio, rep 1: 1.6; nuclear/cytoplasmic p65 ratio, rep 2: 1.54; low cell count flag: enough cells to score; call: inactive

What did the screen give for H2al2a (H2A histone family member L2A)?
p65 translocation robust z-score: -0.18; nuclear/cytoplasmic p65 ratio, rep 1: 1.37; nuclear/cytoplasmic p65 ratio, rep 2: 1.4; low cell count flag: enough cells to score; call: inactive

Part of the list above in another layout:
Target gene	pool no.	p65 translocation robust z-score	nuclear/cytoplasmic p65 ratio, rep 1	nuclear/cytoplasmic p65 ratio, rep 2	low cell count flag	call
Tmem63b (transmembrane protein 63b)	1	0.94	1.7	2.03	enough cells to score	inactive
Wdr12 (WD repeat domain 12)	1	0.08	1.6	1.54	enough cells to score	inactive
